# Experimental data reported in publication PMC11335240.
# T1: ZMYND12 (Zinc Finger, MYND domain containing 12) (mouse (endogenous in testis)) (UniProt A2BGJ5)
# T1 sequence: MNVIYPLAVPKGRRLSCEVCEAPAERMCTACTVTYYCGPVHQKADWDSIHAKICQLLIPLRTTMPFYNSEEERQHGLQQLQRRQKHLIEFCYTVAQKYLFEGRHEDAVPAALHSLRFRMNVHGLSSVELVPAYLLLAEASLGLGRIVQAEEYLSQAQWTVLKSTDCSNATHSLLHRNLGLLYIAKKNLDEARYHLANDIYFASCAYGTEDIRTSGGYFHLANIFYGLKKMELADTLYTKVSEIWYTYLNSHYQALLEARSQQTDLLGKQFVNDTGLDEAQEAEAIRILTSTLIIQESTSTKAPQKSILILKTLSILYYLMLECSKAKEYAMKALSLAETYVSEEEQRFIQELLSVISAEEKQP
# B1: TTC29 (protein, UniProt Q80VM3 1-471)
# chain: MATFPPLPMTHTRLAILARQKLPCSSKKIPRAQLIKEKEDIDYYLEQNFKGLSKEEVAAHRNSYKKSICVDMLRDGFHKSFTELFALMEQWDKLPEAAKAQSLFWQQRPLEDQPDKLDNFYHYLTRAEAAERKGYYEEVYNNLYALACYFDNSEDKWVRNHFYERCFNIAQLIKADGGKKEAEAESHMGLLFEEEGELLKAAEHYEAFHELTHGRLWKDGTGQLLNLVACESLVRTYRLLSDRMLENKDYKQAIKILIKASEIAREGNDRSMEGEASYYLGLAHLASGEYETALTVLNRYSEISTSLDDDHGLGRAYEAIAKALQSQGETTEAINYLEKFVTIARNNLQSLDMIRACTMLGDIYNEKGQYSKASEYFQQAFSTAMELMKTALMDETKVHYGIARAHQMMLAMKGYIESADSNGLNCLLSWKETRTQIEYDPILGESRRATEDNIYQLPDAEEETRRSPENQ
# Biological target: T1, ZMYND12 (Zinc Finger, MYND domain containing 12) (mouse (endogenous in testis))
# Test: affinity purification with mass spectrometry; immunoprecipitation with anti-ZMYND12 (anti-IgG as control) from wild-type mouse testis extract; SDS-PAGE, silver staining, bands cut out, LC-MS/MS; n = 3
binder,measurement,value
B1,binding,binds

# No constants are given. Whether binding was seen depends on the method and setting. Binding seen in cells or lysates may run through a third protein. Here binding means that the protein was enriched with, or labelled near, the bait; the list need not be complete.
